Measured values published in patent US20060106005A1, “Funtionalised metallocenes as anticancer drugs” (priority 2003, published 2006).

Test system: MCF-7
Experiment: Sensitivity of cell lines to Cisplatin and Ti compounds (MCF-7)
Format: cell-based

N.N.[Cl][Pt][Cl] [Cisplatin, cisplatin, reference compound]
IC50: 9 µM
